This passage reports binding results from doi:10.1101/2024.10.01.616066.

By UniProt entry, the sequences of proteins in these tests, tags left out. Where a name states a change or a piece, a line headed by the entry shows the natural chain unless it says otherwise.
UniProt O43524: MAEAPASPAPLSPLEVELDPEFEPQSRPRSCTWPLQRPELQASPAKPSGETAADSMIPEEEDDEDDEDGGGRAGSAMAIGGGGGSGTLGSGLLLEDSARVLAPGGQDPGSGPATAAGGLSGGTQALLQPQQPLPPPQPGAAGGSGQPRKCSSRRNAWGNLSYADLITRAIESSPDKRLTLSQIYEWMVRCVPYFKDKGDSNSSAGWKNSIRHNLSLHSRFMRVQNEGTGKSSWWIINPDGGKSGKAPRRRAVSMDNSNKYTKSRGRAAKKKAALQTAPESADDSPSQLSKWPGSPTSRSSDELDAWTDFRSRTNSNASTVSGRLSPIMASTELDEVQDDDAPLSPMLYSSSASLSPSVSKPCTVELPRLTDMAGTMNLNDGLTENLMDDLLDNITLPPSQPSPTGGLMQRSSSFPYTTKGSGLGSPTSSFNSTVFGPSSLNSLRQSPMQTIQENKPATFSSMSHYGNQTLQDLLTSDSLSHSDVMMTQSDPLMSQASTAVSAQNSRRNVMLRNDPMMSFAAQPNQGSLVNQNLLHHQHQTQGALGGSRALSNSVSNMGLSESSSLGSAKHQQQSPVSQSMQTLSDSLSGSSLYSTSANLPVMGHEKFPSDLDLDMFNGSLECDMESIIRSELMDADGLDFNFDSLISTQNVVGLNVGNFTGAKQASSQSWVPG
UniProt Q9H6Z9: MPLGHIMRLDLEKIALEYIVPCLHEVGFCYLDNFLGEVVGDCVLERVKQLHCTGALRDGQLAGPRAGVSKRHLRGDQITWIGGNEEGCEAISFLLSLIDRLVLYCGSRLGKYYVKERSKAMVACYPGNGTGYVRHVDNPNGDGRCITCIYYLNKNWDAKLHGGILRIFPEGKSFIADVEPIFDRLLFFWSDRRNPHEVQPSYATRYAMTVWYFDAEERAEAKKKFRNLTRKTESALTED

Read-outs that look alike come from different tables or passages of the source. These are yes or no findings as the source states them, for the method shown. Binding seen in cells or lysates may run through a third protein. Some entries that bind do so weakly or less than the wild type.

What all share (experiment): co-IP
Experiment [1] has as its target P426A/P437A mutant (2P-A) FOXO3-FLAG (UniProt O43524).
The target is the same in experiment [2]. This is another data set of the same source.
Another experiment deals with wildtype (WT) FOXO3-FLAG (UniProt O43524).

As for “PHD3-V5 (from UniProt Q9H6Z9 1-239) (enzyme)”, the binding result is reported as “no binding (condition: without DMOG)” in experiment [1], “binds” in experiment [2] and “binds” with wildtype (WT) FOXO3-FLAG.
